Values from PubChem BioAssay AID504793 (Drosophila RNAi Screening Center, 2011).
The screen tested about 23,000 reagents; shown is an unselected part of those that have a named target and a result. Over the whole deposit, 62 (0.27%) were called active. 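Calls come from follow-up tests whose scores are not deposited, so confirmed genes may have low counts here; counts are not normalised per plate.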 Raw values are not corrected between plates. Entries without a mark were called inactive. A plus sign joins genes that one reagent is predicted to hit.

- Assay: 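Knock-downs allowing continued mitosis even though DNA is damaged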 (primary screen)
- Cell system: Drosophila S2R+ cells
- Knock-down reagent: long dsRNA against Drosophila genes, about 0.25 µg dsRNA per well
- Duration: 4 days of dsRNA, then 4 hours of drug before read-out
- Treatment: doxorubicin 0.5 µM for 4 hours to cause double-strand breaks, in cells also given a low, harmless dose of dsRNA against nbs to sensitise the assay
- Measurement: 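Per-well count of mitotic cells stained for phospho-histone H3 after doxorubicin exposure, used as mitotic index; counts are raw and not normalised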
- Direction: mitotic cells: higher = more cells in mitosis, weaker G2 arrest
- Rule for the call: 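Genes are called active only when high mitotic counts were reproduced with independent dsRNAs and mitosis was checked for delay without damage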
- Meaning of the calls: active = confirmed in follow-up tests; inactive = not confirmed

Gene,amplicon,"mitotic cells, replicate 1"
CG15468,DRSC18051,17
MFS14,DRSC06524,11
MFS14,DRSC29787,6
crok,DRSC02593,3
crok,DRSC21349,15
crok,DRSC29822,10
CG31055,DRSC13832,5
barr,DRSC03488,24
rdog,DRSC14431,2
rdog,DRSC26545,7
px,DRSC23244,8
px,DRSC25863,2
CG8004,DRSC10947,6
CG8004,DRSC26615,3
CG5934,DRSC15922,10
CG5934,DRSC27431,7
CG31100,DRSC14453,2
CG31100,DRSC14455,4

In a second layout: 3 of the entries above.
{"Gene":"rdog","amplicon":"DRSC14431","mitotic cells, replicate 1":2}
{"Gene":"rdog","amplicon":"DRSC26545","mitotic cells, replicate 1":7}
{"Gene":"px","amplicon":"DRSC23244","mitotic cells, replicate 1":8}

Additional entries follow.
Gene,amplicon,"mitotic cells, replicate 1"
LpR1,DRSC15665,9
LpR1,DRSC15669,15
LpR1,DRSC15670,9
LpR1,DRSC27848,6
Dora,DRSC19614,4
Dora,DRSC19781,5
Dora,DRSC20034,10
Dora,DRSC20035,1
Dora,DRSC27055,6
Dora,DRSC28428,2
CG8407,DRSC07167,3
mv,DRSC08208,2
mv,DRSC08570,8
mv,DRSC28733,5
DIP-zeta,DRSC02203,4
DIP-zeta,DRSC02204,10
DIP-zeta,DRSC02205,4
CG18766,DRSC15936,8
CG18766,DRSC25739,6
Galt,DRSC03161,4
CG3632,DRSC19871,9
Tm2,DRSC16887,3
Tm2,DRSC26884,7
Nup37,DRSC14419,8
CG13850,DRSC14700,6
CG17777,DRSC18137,8
Cpr57A + Obp57d,DRSC06708,11
Cpr57A + Obp57d,DRSC22719,11
